# The campaign covered roughly 400,000 compounds. About 3,700 (0.93%) were called active. Inconclusive results, whose numbers are uncertain, are shown with a selection of clear calls. Calls follow the shape of the dose curve; as a rule, active = well fitted inhibition curve with a large enough effect; inconclusive = small, poorly fitted or top-dose-only effect, or another doubt; inactive = no such curve, though single readings can be large or run the other way. Potencies beside an inconclusive call are fits to weak or partial responses and may not hold up.
# Protein sequences, listed by entry. Tags and fused reporters are not part of them. Lines headed by an entry give the natural chain unless they say otherwise; changes in a name come on top.
# UniProt P11473: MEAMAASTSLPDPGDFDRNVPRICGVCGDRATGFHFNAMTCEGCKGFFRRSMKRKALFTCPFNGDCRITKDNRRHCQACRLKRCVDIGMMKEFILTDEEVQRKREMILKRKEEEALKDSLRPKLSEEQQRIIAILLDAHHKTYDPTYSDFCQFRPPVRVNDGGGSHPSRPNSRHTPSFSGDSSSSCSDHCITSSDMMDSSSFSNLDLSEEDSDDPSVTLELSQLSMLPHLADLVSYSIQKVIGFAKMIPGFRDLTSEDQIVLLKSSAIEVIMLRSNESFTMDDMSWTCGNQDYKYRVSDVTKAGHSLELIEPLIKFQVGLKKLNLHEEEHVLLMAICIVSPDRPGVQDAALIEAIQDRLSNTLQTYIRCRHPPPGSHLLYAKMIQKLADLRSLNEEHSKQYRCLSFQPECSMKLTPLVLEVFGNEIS
# Molecular target: Vitamin D3 receptor (Homo sapiens) (UniProt P11473)
# Assay: Inhibitors of the vitamin D receptor (VDR): qHTS
# Details: VDR-SRC2-3 peptide fluorescence polarization, 2 h; max response, negative = inhibition: active compounds read low
# How it was run: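 Fluorescence polarization assay measuring small-molecule disruption of VDR binding to the coregulator peptide SRC2-3. Compounds were pin-transferred (23 nl) into the reagent mix and incubated 2 h at room temperature before reading.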
# % is scaled to controls: 0 for no effect and ±100 for the full control effect; potency is read from the fitted curve at half-maximal effect.
SMILES,Potency,"max response, negative = inhibition"
O=S(=O)(N(Cc1ccccc1)[C@H](CO)Cc1ccccc1)N(Cc1ccccc1)[C@H](CO)Cc1ccccc1,"inconclusive: 89.1 µM [inhibitor, single point]",
CS(=O)(=O)n1nc(OC(=O)c2cc(Br)ccc2Cl)cc1N,"inconclusive: 44.7 µM [inhibitor, partial curve, poor fit]",
COc1ccc(/C=C/C(=O)c2ccccc2)cc1Cn1nnc2ccccc21,"inconclusive: 50.1 µM [inhibitor, partial curve]",
CC(C)N1C(=O)S/C(=C\c2ccc(-c3ccc(Cl)c(C(=O)O)c3)o2)C1=O,"inconclusive: 70.8 µM [inhibitor, partial curve, poor fit]",
CC(=O)Nc1ccc(SC[C@H](Cc2ccccc2)N2CCN(CCc3ccccc3)CCC2=O)cc1,"inconclusive: 70.8 µM [inhibitor, single point]",
COc1cc(N/C(N)=N/c2nc(C)cc(C)n2)cc(OC)c1,,inactive: -14.2%
CCOC(=O)c1ccccc1NC(=O)CN1CCC(n2nnc3cc(C(F)(F)F)ccc32)CC1,"inconclusive: 5.01 µM [inhibitor, full curve, poor fit]",
O=C(O)CCC(=O)OCc1c(-c2ccccc2)ncc2ccccc12,"inconclusive: 89.1 µM [inhibitor, single point]",
COc1ccc(C2C(=O)N(C3CCC(C)CC3)CC(=O)N2Cc2ccccc2Cl)cc1OC (configuration not stated),,inactive: 7.64%
Cc1ccc(Sc2c(C)nn(C(=O)COc3ccc(F)cc3)c2C)cc1,,inactive: -1.45%
COc1ccc(CC(=O)NC(C)c2nnc(SCC(=O)c3ccc(Br)cc3)n2C)cc1 (configuration not stated),"inconclusive: 100 µM [inhibitor, partial curve, poor fit]",
O=C(Oc1ccccc1/C=C\C(=O)c1cc2ccccc2o1)c1cccc(F)c1,active: 28.2 µM,
COc1cc(SC#N)ccc1N=Cc1c(C)[nH]n(-c2cccc3ccccc23)c1=O,"inconclusive: 25.1 µM [inhibitor, full curve]",
CCCCCC(O)(CCN1CCCCC1)c1ccc(OCC)cc1 (configuration not stated),"inconclusive: 56.2 µM [inhibitor, partial curve, poor fit]",
CSc1ccccc1C(=O)NCc1ccc2c(c1)OCO2,,inactive: -16.7%
c1coc(-c2cc(C3CCNCC3)[nH]n2)c1,,inactive: -12.4%
O=C(c1ccccc1)c1ccc(OCC(O)CNCc2ccc(F)cc2)cc1 (configuration not stated),,inactive: -3.81%
CN=C1N[C@H](c2ccccc2)N(c2ccccc2)S1,active: 25.1 µM,
O=C(Cc1ccccc1)NCC(=O)Nc1cc(Cl)ccc1Cl,"inconclusive: 79.4 µM [inhibitor, partial curve]",
COc1cc(/C=C/C(=O)c2ccc([N+](=O)[O-])o2)ccc1O,"inconclusive: 56.2 µM [inhibitor, partial curve, poor fit]",
CCCOc1ccc(CCC(=O)N/N=C/c2ccncc2)cc1,"inconclusive: 25.1 µM [inhibitor, partial curve, poor fit]",
O=C(c1c[nH]c(C(=O)C(Cl)(Cl)Cl)c1)c1c(F)cccc1F,"inconclusive: 25.1 µM [inhibitor, partial curve, poor fit]",
O=C(N/N=C/c1coc2ccccc2c1=O)c1ccccc1Br,"inconclusive: 100 µM [inhibitor, single point]",

# Exported with tabs: 5 of the compounds above
SMILES	Potency	max response, negative = inhibition
Cc1ccc(Sc2c(C)nn(C(=O)COc3ccc(F)cc3)c2C)cc1		inactive: -1.45%
COc1ccc(CC(=O)NC(C)c2nnc(SCC(=O)c3ccc(Br)cc3)n2C)cc1 (configuration not stated)	inconclusive: 100 µM [inhibitor, partial curve, poor fit]	
O=C(Oc1ccccc1/C=C\C(=O)c1cc2ccccc2o1)c1cccc(F)c1	active: 28.2 µM	
COc1cc(SC#N)ccc1N=Cc1c(C)[nH]n(-c2cccc3ccccc23)c1=O	inconclusive: 25.1 µM [inhibitor, full curve]	
CCCCCC(O)(CCN1CCCCC1)c1ccc(OCC)cc1 (configuration not stated)	inconclusive: 56.2 µM [inhibitor, partial curve, poor fit]	

# Additional records.

SMILES,Potency,"max response, negative = inhibition"
COc1ccc([N+](=O)[O-])cc1CSc1ccccn1,,inactive: -25.9%
CCN(CC)CCNC(=O)CSc1c2c(nc3cc(Cl)ccc13)CCCC2,"inconclusive: 63.1 µM [inhibitor, partial curve, poor fit]",
CCCn1cc(S(=O)(=O)c2cc(C)ccc2C)c(=O)c2cc(F)c(N3CCOCC3)cc21,,inactive: 6.86%
S=c1[nH]c2ccc(Cc3ccc4[nH]c(=S)[nH]c4c3)cc2[nH]1,,inactive: -13%
COC(=O)c1cc(S(=O)(=O)N2CCCCC2)c[nH]1,,inactive: 2.32%
Cc1c(Br)c([N+](=O)[O-])nn1CCCC(=O)NC(C)c1ccccc1 (configuration not stated),"inconclusive: 100 µM [inhibitor, single point]",
O=C(O)C1CCCN1c1nc(-c2ccc(Cl)c(Cl)c2)cc(C(F)(F)F)n1 (configuration not stated),"inconclusive: 89.1 µM [inhibitor, single point]",
CC(NC(=O)Cn1ncc(Cl)c(Cl)c1=O)C12CC3CC(CC(C3)C1)C2 (configuration not stated),"inconclusive: 3.98 µM [inhibitor, full curve, poor fit]",
O=C(/C=C/c1ccc([N+](=O)[O-])cc1)N(c1ccccn1)C1CCCCC1,"inconclusive: 39.8 µM [inhibitor, single point]",
CCN(c1ccc(NC(=O)CSc2nnc3nc(C)cc(C)n23)cc1)C(C)C,,inactive: -11.9%
Cc1nc2c(-c3ccccc3)c(C)nn2c(C)c1CCC(=O)NCc1ccccc1Cl,,inactive: 0.613%
COc1ccc(/C=C/c2ccc(=O)n(Cc3ccccc3)n2)cc1,"inconclusive: 89.1 µM [inhibitor, partial curve, poor fit]",
OCC1OC(Oc2c[nH]c3ccccc23)C(O)C(O)C1O (configuration not stated),"inconclusive: 100 µM [inhibitor, single point]",
CCOC(=O)C1=C(CS(=O)(=O)c2ccc(C)cc2)NC(=O)NC1c1ccc(C(C)C)cc1 (configuration not stated),,inactive: -9.24%
CNC(=S)N(Cc1ccc(OC)cc1)Cc1cc2cccc(C)c2[nH]c1=O,"inconclusive: 28.2 µM [inhibitor, single point]",
Cc1cc(C)c(S(=O)(=O)N2CCOCC2)cc1C,"inconclusive: 22.4 µM [inhibitor, full curve]",
Cc1cc(C)cc(OC(=O)CS(=O)c2ccc(C(F)(F)F)cc2[N+](=O)[O-])c1 (configuration not stated),active: 20 µM,
C=C(C(=O)C(C)(C)O)C(O)c1ccc([N+](=O)[O-])cc1 (configuration not stated),,inactive: -0.0859%
Cc1ccc(C)c(-n2c(CCC(=O)O)ccc2-c2ccc(Cl)cc2)c1,"inconclusive: 79.4 µM [inhibitor, single point]",
O=C(CNc1ccccc1)c1ccc([N+](=O)[O-])cc1,"inconclusive: 89.1 µM [inhibitor, single point]",
COC(=O)CSC1=C(C#N)C(=O)NC2(CCCCC2)S1,"inconclusive: 79.4 µM [inhibitor, single point]",
COc1ccc(CNC(=O)C[C@H]2C[C@H](C(=O)N3CCCCC3)[C@@]3(C)c4[nH]c5ccc(Cl)cc5c4CCN3C2=O)cc1OC,"inconclusive: 89.1 µM [inhibitor, partial curve, poor fit]",
Cc1ccccc1OCC(=O)OCc1cc(=O)n2nc(C3CCCCC3)sc2n1,,inactive: 12%

SMILES,Potency,"max response, negative = inhibition"
COCCCNC(=O)Cn1c(=O)n(CC(=O)NCCc2ccc(OC)c(OC)c2)c(=O)c2sccc21,"inconclusive: 89.1 µM [inhibitor, partial curve, poor fit]",
CCCCCCCCCCOc1cc(OCCCCCCCCCC)cc(N(CC(=O)O)CC(=O)O)c1,active: 50.1 µM,
OC(C#Cc1ccccn1)c1cccs1 (configuration not stated),active: 50.1 µM,
Cc1cccc(C)c1NC(=S)N/N=C1\CC2CC=CC12 (configuration not stated),"inconclusive: 100 µM [inhibitor, single point]",
O=c1c(Br)ccc(Br)cc1Br,active: 10 µM,
O=C(NCCN1C(=O)S/C(=C\c2cccnc2)C1=O)C1=NN(c2ccccc2)C(=O)CC1,active: 28.2 µM,
S=C(c1ccc2c(c1)OCO2)N1CCN(c2cccc(Cl)c2)CC1,"inconclusive: 79.4 µM [inhibitor, partial curve]",
CCOc1cccc2cc(-c3nc4ccc(C(=O)O)cc4[nH]3)c(=O)oc12,,inactive: 14.4%
CN(C)CCn1nnnc1SCC1=C(C(=O)O)N2C(=O)[C@@H](NC(=O)Cc3csc(N)n3)[C@@H]2SC1,"inconclusive: 28.2 µM [inhibitor, partial curve]",
Cc1sc(N)c(C(=O)c2cccc(C(F)(F)F)c2)c1C,active: 25.1 µM,
Cc1cccc(C)c1NC(=O)CN(C)C(=O)c1ccccc1SCC(=O)N1CCCC1,,inactive: 13.8%
NC(=O)c1cc(S(=O)(=O)NCCCc2ccco2)cs1,"inconclusive: 100 µM [inhibitor, partial curve, poor fit]",
CC(C)C1N=C(c2ccc3c(c2)OCO3)CC(c2ccccc2O)N1 (configuration not stated),active: 79.4 µM,
COc1ccc(Nc2nc(-c3ccc(OC)cc3)c(CCC(=O)O)s2)cc1,"inconclusive: 11.2 µM [inhibitor, partial curve, poor fit]",
COc1ccc(N(CC(=O)NC2CCCC2)C(=O)Cn2nnc(-c3ccc(OC)c(OC)c3)n2)c(OC)c1,"inconclusive: 89.1 µM [inhibitor, single point]",
CC(C)(C)CC(C)(C)SSc1n[nH]c(=S)s1,"inconclusive: 28.2 µM [inhibitor, full curve]",
COc1ccc2[nH]cc(CCCN3C(=O)c4ccccc4C3=O)c2c1,"inconclusive: 89.1 µM [inhibitor, single point]",
CC(=O)N(CCC(c1ccccc1)c1ccco1)Cc1cccs1 (configuration not stated),"inconclusive: 70.8 µM [inhibitor, partial curve, poor fit]",
COc1cc(-c2noc(C)c2-c2ccc3[nH]ccc3c2)cc(OC)c1OC,"inconclusive: 112 µM [inhibitor, partial curve, poor fit]",
Cc1ccccc1NC(=S)NC(=O)/C=C/c1ccco1,"inconclusive: 89.1 µM [inhibitor, single point]",
Cc1ccc(C2C(C#N)=C(N)Oc3nc(-c4ccccc4)[nH]c32)o1 (configuration not stated),,inactive: -11.7%

# Source: PubChem BioAssay AID504847 (National Center for Advancing Translational Sciences (NCATS), 2011)
